Results taken from article PMC7819943, “Rice protein-binding microarrays: a tool to detect cis-acting elements near promoter regions in rice”.
The other results are listed elsewhere or left out.

Each sequence was assayed against T1, OsSMF1 (Oryza sativa, UniProt Q6ZLB0 1-436) (assay: protein-binding microarray (RPBM); PBS, 2% BSA, 51.3 ng/ul salmon testes DNA, 50 uM zinc acetate, 200 nM TF, 25 C, 1 h; high values mean tight binding). Conditions: protein: recombinant; tags: N-terminal polyhistidine and DsRed monomer fusion (pET32a); chain copies: 2; label: CyDye5-dUTP incorporated in the synthesized complementary strand; 3' TTTTT single-stranded linker to array surface; dsDNA, one strand shown.
T1 sequence: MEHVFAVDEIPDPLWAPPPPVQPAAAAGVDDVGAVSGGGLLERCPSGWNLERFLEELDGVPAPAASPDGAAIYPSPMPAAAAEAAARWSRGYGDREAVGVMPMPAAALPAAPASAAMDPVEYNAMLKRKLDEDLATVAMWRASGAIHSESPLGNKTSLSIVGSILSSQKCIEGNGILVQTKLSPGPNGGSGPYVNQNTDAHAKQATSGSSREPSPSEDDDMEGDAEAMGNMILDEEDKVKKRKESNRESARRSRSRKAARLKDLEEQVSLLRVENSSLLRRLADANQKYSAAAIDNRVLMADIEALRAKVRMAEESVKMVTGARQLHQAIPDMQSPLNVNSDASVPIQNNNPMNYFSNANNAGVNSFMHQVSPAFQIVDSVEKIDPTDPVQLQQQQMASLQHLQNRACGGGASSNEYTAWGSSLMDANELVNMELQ
Summary of the method: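 Per-feature fluorescence intensity (arbitrary units), read on an Axon 4000B scanner, is the binding signal. Transcription factors carrying an N-terminal polyhistidine tag and DsRed fusion were expressed in E. coli BL21-CodonPlus and purified on Ni–NTA. A custom Agilent array, made double-stranded by primer extension with Cy5-dUTP and blocked with 2% BSA, was incubated with 200 nM protein in PBS, 2% BSA, salmon testes DNA and 50 µM zinc acetate at 25 °C for 1 h and then washed.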
“CCCACCCCGCGTGCAGCTTAGGCGAACCCTCCTCCCTCCGCGGAGTCACCTAGTGCAG” was tested, and the binding signal was 3660 fluorescence intensity (a.u.).
In the case of “GCCCACATGTCAGCCACACGCCACCTCGCACGTGCGTCACCGGAGTCACCTAGTGCAG”, the binding signal is reported as 6800 fluorescence intensity (a.u.).
“ACTACCAGGCGGCAGCGGTGACGCCACCCGCGCCCGCGCCCGGAGTCACCTAGTGCAG” was tested, and the binding signal was 4740 fluorescence intensity (a.u.).
With “CTTGGACATCACCTGCGTGTTTCGAATCAGCTCCGTCATGCGGAGTCACCTAGTGCAG” the binding signal was 3710 fluorescence intensity (a.u.).
With “TATTCACAAGCCGCCCTCGTGGCTGTACTCGTACTACGATCGGAGTCACCTAGTGCAG” the binding signal was 3720 fluorescence intensity (a.u.).
With “GCGGCGGTCTCTGCGGCTGAGACTGATGAGCTTTAGGTGGCGGAGTCACCTAGTGCAG” the binding signal was 28500 fluorescence intensity (a.u.).
In the case of “CCGCATTCTCCCGCGCCGCGCCGGATTTTGGGTACAAATGCGGAGTCACCTAGTGCAG”, the binding signal is reported as 3420 fluorescence intensity (a.u.).
In the case of “GCGGCCTATTGTTAGCGAGGAGTCACCCAGATTCTTCTCCCGGAGTCACCTAGTGCAG”, the binding signal is reported as 6870 fluorescence intensity (a.u.).
In the case of “GTATCATGTCAATTGTCAGTATGACAAAAGCTAATTCCTACGGAGTCACCTAGTGCAG”, the binding signal is reported as 28900 fluorescence intensity (a.u.).
“CCCTGCGCAACTCTGCGGCTCGGCTACCTCGACATCGACTCGGAGTCACCTAGTGCAG” was tested, and the binding signal was 3260 fluorescence intensity (a.u.).
For “ATAGCAGGAGGAGTGCAGGAAACACACATGCTCTTCCTCCCGGAGTCACCTAGTGCAG”, the binding signal was 3670 fluorescence intensity (a.u.).
“CCCGTGCCACACGCCCACAACGCACGCCCTCCTCGAGACCCGGAGTCACCTAGTGCAG” was tested, and the binding signal was 3510 fluorescence intensity (a.u.).
In the case of “TCATGTTGCCCAACTGCCACATGGGTGGCCACTGTGCAGTCGGAGTCACCTAGTGCAG”, the binding signal is reported as 4740 fluorescence intensity (a.u.).
With “GTAGTTAAGTATATTAACTAATAGTGTTAATAGAGGTAGTCGGAGTCACCTAGTGCAG” the binding signal was 4230 fluorescence intensity (a.u.).
In the case of “ATAAATAACCTGTCTGAAGGCGGGCTGGCGCCACGTGTTGCGGAGTCACCTAGTGCAG”, the binding signal is reported as 10500 fluorescence intensity (a.u.).
For “GGTTGAAAGCTTTCAGAATTTGACTCAGCGTATAAATTTCCGGAGTCACCTAGTGCAG”, the binding signal was 6950 fluorescence intensity (a.u.).
“GACCACAACACGCGACGCCACGCCTCCTCCCGATCCGCTCCGGAGTCACCTAGTGCAG” was tested, and the binding signal was 3510 fluorescence intensity (a.u.).
For “CCCAAACCCCAGAGTTTGAGTACGCGTCAGATGGCGGTTTCGGAGTCACCTAGTGCAG”, the binding signal was 6710 fluorescence intensity (a.u.).
In the case of “TTACAAAACAACTAACTTTACATTTCAATTTGGACCATCACGGAGTCACCTAGTGCAG”, the binding signal is reported as 4510 fluorescence intensity (a.u.).
In the case of “CATCATTACTTGACACGCACAGCACTCCGCCCATCCCCGCCGGAGTCACCTAGTGCAG”, the binding signal is reported as 5480 fluorescence intensity (a.u.).
“TTCCATTTCTTCCCCTCGCCAAGGCGAGGCCGCGAGAGGGCGGAGTCACCTAGTGCAG” was tested, and the binding signal was 9040 fluorescence intensity (a.u.).
“TGAAATGTCACGTACTGTTTGTTCTAGTTAGTGAATTGTCCGGAGTCACCTAGTGCAG” was tested, and the binding signal was 3560 fluorescence intensity (a.u.).
“CGAAGTCTGCGCAGCGTCGTCACTGAGCACGTGCCGTCGTCGGAGTCACCTAGTGCAG” was tested, and the binding signal was 4270 fluorescence intensity (a.u.).
For “CTCGCCGCCGACGTTGAGGGTGACGACGGAGGAGGCCATTCGGAGTCACCTAGTGCAG”, the binding signal was 3730 fluorescence intensity (a.u.).
For “CTGTATATATCCACACCTGAACACATTGGCTTCTGGGCATCGGAGTCACCTAGTGCAG”, the binding signal was 4230 fluorescence intensity (a.u.).
“GTGCAAGTGCCGAACGCGGCCGACGTGGCGAAGGCGGCTGCGGAGTCACCTAGTGCAG” was tested, and the binding signal was 7190 fluorescence intensity (a.u.).
For “CGCATCTCTTATACCAATTTCGGGGTCTGGGATCTGGGTTCGGAGTCACCTAGTGCAG”, the binding signal was 22600 fluorescence intensity (a.u.).
For “AGTTTACTGAAGATGACACGCCGACACGAATTAGGACAGCCGGAGTCACCTAGTGCAG”, the binding signal was 3710 fluorescence intensity (a.u.).
For “GTTTTATGTACATGTCATATGTTTCTTAAGGCCTAAATGCCGGAGTCACCTAGTGCAG”, the binding signal was 3580 fluorescence intensity (a.u.).
With “AGCTTGTTTAGCTCCTGGAAGAAATGTGTCCGAATTATATCGGAGTCACCTAGTGCAG” the binding signal was 3540 fluorescence intensity (a.u.).
For “ACACCGCACCGCATCGTCGCCGTCATCCTCCGGCGTCCCGCGGAGTCACCTAGTGCAG”, the binding signal was 3540 fluorescence intensity (a.u.).
With “CGTCGTAGGTGAAACAGCCACGTCATCTCGCAGGTGAATCCGGAGTCACCTAGTGCAG” the binding signal was 13900 fluorescence intensity (a.u.).
For “CGAGCTTTGATTGTTTGTTAGTAGTAGTAATTTTCTCATGCGGAGTCACCTAGTGCAG”, the binding signal was 3270 fluorescence intensity (a.u.).
For “CTACTAGCTCACACTGTCACAGTCACCACACAGCTACTAGCGGAGTCACCTAGTGCAG”, the binding signal was 4900 fluorescence intensity (a.u.).
For “CTGTAACACAGACTAAATATGTATGTGTGTATGACATGTGCGGAGTCACCTAGTGCAG”, the binding signal was 3510 fluorescence intensity (a.u.).
With “ACGTCGCGTGCTGCTGCCGTGCCCGCGTACGTGCCGTGCTCGGAGTCACCTAGTGCAG” the binding signal was 3180 fluorescence intensity (a.u.).
For “GCGCAGAGGAGAGGAGGAGGATATCGAGTGCGGGCCGGAGCGGAGTCACCTAGTGCAG”, the binding signal was 4140 fluorescence intensity (a.u.).
With “CCCGATCAGTTGACACTCGTCGTCGCCCTTCTCTTCGCCACGGAGTCACCTAGTGCAG” the binding signal was 3620 fluorescence intensity (a.u.).
With “CTGGCTGTCGTCAGCTGTCACACCCCAAACCTGCACGTGCCGGAGTCACCTAGTGCAG” the binding signal was 3340 fluorescence intensity (a.u.).
In the case of “CATCAGCGTACGCGAACGGGCTCTCGCCGTGCGGTGGCGTCGGAGTCACCTAGTGCAG”, the binding signal is reported as 22500 fluorescence intensity (a.u.).
With “TGTGATGAACAATTAGCATATGAGATTATCGGTTTTAATACGGAGTCACCTAGTGCAG” the binding signal was 3260 fluorescence intensity (a.u.).
With “CCACGCGCAAAAGCTGAGCTGCCACGAACGCGCCGTCACCCGGAGTCACCTAGTGCAG” the binding signal was 5920 fluorescence intensity (a.u.).
For “GGCGGCGGAGGGCAGTGCTAGGGCTGACACGTTGAGGCGTCGGAGTCACCTAGTGCAG”, the binding signal was 3230 fluorescence intensity (a.u.).
With “CTTGTCACTCAGCCAGCATGATGATGAGATTGAGGTTGATCGGAGTCACCTAGTGCAG” the binding signal was 24500 fluorescence intensity (a.u.).
For “AGTCAGGGTGCTTGATGAGACAGGTGACTTCATCACCGGACGGAGTCACCTAGTGCAG”, the binding signal was 3170 fluorescence intensity (a.u.).
“GAAGGTCTCCCTCCTCAGCGCCGTCATCAAGCACATGAGCCGGAGTCACCTAGTGCAG” was tested, and the binding signal was 4320 fluorescence intensity (a.u.).
For “CCACCACCGCCACCGCCACCGCCACCGCCCCTACACCTGCCGGAGTCACCTAGTGCAG”, the binding signal was 4710 fluorescence intensity (a.u.).
For “CTAGGAGAGGGAAAAGGCAAAGATACTGATACATACATGACGGAGTCACCTAGTGCAG”, the binding signal was 3360 fluorescence intensity (a.u.).
For “CCGGTTTTCTCCGCAGTTTCTTGATCCATCCGCCTTTCCTCGGAGTCACCTAGTGCAG”, the binding signal was 4640 fluorescence intensity (a.u.).
“TAGCGCGCGAAGGGACGCCATGGCCGCCACGCACGCACCTCGGAGTCACCTAGTGCAG” was tested, and the binding signal was 10900 fluorescence intensity (a.u.).
For “CTTCCCATCCCAGCCGCCACGCCCACGCGTCGCAAGCCGCCGGAGTCACCTAGTGCAG”, the binding signal was 5290 fluorescence intensity (a.u.).
With “ATCGGACATTAAACCACCCAAAGTTGACGGTTTGCTTGGTCGGAGTCACCTAGTGCAG” the binding signal was 3240 fluorescence intensity (a.u.).
In the case of “CCAAGCGCGCGCGTCGCTGGTCCAACGCGGACGGAGCCGGCGGAGTCACCTAGTGCAG”, the binding signal is reported as 3400 fluorescence intensity (a.u.).
“TCCTGAACAGCATCGCAACTGGAAGAAGACGGAGGGAGGGCGGAGTCACCTAGTGCAG” was tested, and the binding signal was 36700 fluorescence intensity (a.u.).
